From US20250268856A1, “Pain Relieving Method” (Animal Ethics Pty Ltd, priority 2019, published 2025)

Settings: in vivo

Plasma levels (in the range considered therapeutic): 1000 to 5000 ng/mL
Structure (SMILES): CCN(CC)CC(=O)Nc1c(C)cccc1C [lidocaine/lignocaine, lidocaine]
